Measured values: US12274684B2, “Treatment of vasculopathy with prostacyclin and mesenchymal stem cells” (United Therapeutics Corporation, priority 2013, dated 2025)

Tested on: human bone marrow MSC
Assay: Microarray gene expression analysis of MSC (Illumina Human HT12 Expression BeadChip)
Format: cell-based
Details: 250 μg/mL, 24 h
Experimental: Human bone marrow MSC were expanded and seeded into six (6) T225 flasks using standard growth medium (Table 1). At 95-99% confluency, cells were thoroughly washed with PBS. Three (3) flasks were replenished with basal media containing 250 μg/mL treprostinil, (+)Tre, and the remaining three (3) flasks were replenished with unsupplemented basal media, (−)Tre. After 24 hours of culture, representative images were captured from (+) Tre and (−) Tre cultures. Conditioned media was collected from each replicate, divided into two samples of appropriate volumes, and analyzed separately for: 1) secreted proteins (Myriad RBM InflammationMAP® 1.0) and 2) exosome RNA content. Cells were lysed directly from culture flasks, processed for total RNA isolation, and analyzed for gene expression by microarray (Illumina Human HT12 Expression BeadChip). Microarray gene expression analysis was also performed on MSC from cultures without (−) or with (+) 250 ug/mL treprostinil. Three (3) biological replicates from each condition were analyzed. Of the 77,612 sequences identified among all replicates, only 24,273 were detected above the arbitrary background of 50 counts. 2,984 RNA sequences were unique to Tre(−) cultures, while 1,781 RNA sequences were unique to Tre(+) cultures (panel A). Genes detected in both conditions were further analyzed for differential expression (panel). […] Genes that are expressed only in Tre(−) cultures (that is to say, completely turned off in the Tre(+) cultures) are shown in Table 5.

Question: `CCCCC[C@H](O)CC[C@@H]1[C@H]2Cc3cccc(OCC(=O)O)c3C[C@H]2C[C@H]1O` [treprostinil] was tested. Which “Genes at least 4-fold higher in Tre(+) MSC cultures” value did it give?
Answer: 171

Question: And the “Genes at least 4-fold higher in untreated MSC” value?
Answer: 268

Question: What about the “Commonly expressed genes that differed significantly (p<0.01)” value (of 19,508 genes) of the same compound?
Answer: 1,690

Question: What about the “RNA sequences unique to Tre(+) cultures” value (of 24,273 detected) of the same compound?
Answer: 1,781

Question: What about the “RNA sequences unique to Tre(−) cultures” value (of 24,273 detected) of the same compound?
Answer: 2,984
